PubChem BioAssay AID1259254 | NCATS, 2017
In all, the deposit lists about 59,000 reagents; below is an unselected part. About 1,550 of all reagents (2.6%) were called active. 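G2 share is only a proxy for re-replication; each gene was hit by three separate siRNAs, and active genes were retested.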 Entries without a mark were called inactive. Reagents against one gene are numbered here. Not all columns of the deposit are shown. No sequences are given here. Not given: the amount of reagent.

- Aim: 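Genome-wide screen for genes that prevent DNA re-replication in cancer cells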 (primary screen)
- System: human HCT116 colorectal cancer cells
- Knock-down reagent: single siRNA against human genes
- Timing: 3 days
- Measurement: 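Imaged Hoechst DNA stain sorts each cell into a cycle phase by DNA amount; per plate, G2 fraction set to 0% for non-targeting and 100% for GMNN siRNA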
- Reading the numbers: G2 robust z-score: higher = more G2 cells, more excess DNA replication
- Hit rule: 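Active siRNAs have a G2 robust z of 5 or more median absolute deviations over the median, which in these data means about 38% or higher of GMNN control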

G2 robust z-score, by target and reagent
LAPTM4B (lysosomal protein transmembrane 4 beta): #1 -0.579; #2 -0.999; #3 2.68
IDH1 (isocitrate dehydrogenase (NADP(+)) 1): #1 1.82; #2 -0.256; #3 -0.83
PPP1R1A (protein phosphatase 1 regulatory inhibitor subunit 1A): #1 1.16; #2 0.335; #3 2.21
PTPRA (protein tyrosine phosphatase receptor type A): #1 -0.143; #2 0.76; #3 1.07
TMEM38A (transmembrane protein 38A): #1 -1.54; #2 0.519; #3 0.631
CIMIP2A (ciliary microtubule inner protein 2A): #1 -0.817; #2 -0.365; #3 0.775
MGA (MAX dimerization protein MGA): #1 0.301; #2 -1; #3 -0.886
LRRC27 (leucine rich repeat containing 27): #1 0.299; #2 4.92; #3 -0.236
TTC9C (tetratricopeptide repeat domain 9C): #1 -0.591; #2 -0.423; #3 -0.156
FIMP1 (fertilization-influencing membrane protein 1): #1 0.474; #2 -1.06; #3 -0.304
TBC1D21 (TBC1 domain family member 21): #1 0.16; #2 2.39; #3 -0.496
LACRT (lacritin): #1 0.354; #2 0.757; #3 2.41
PXMP4 (peroxisomal membrane protein 4): #1 -0.542; #2 0.149; #3 -0.0306
ANKK1 (ankyrin repeat and kinase domain containing 1): #1 -0.0436; #2 -0.498; #3 2.55
UGT1A5 (UDP glucuronosyltransferase family 1 member A5): #1 -0.501; #2 0.807; #3 0.508
ATG4D (autophagy related 4D cysteine peptidase): #1 -0.371; #2 1.33; #3 -0.752
DNAAF10 (dynein axonemal assembly factor 10): #1 -0.00126; #2 -0.671; #3 -0.564
ZNF831 (zinc finger protein 831): #1 -0.932; #2 -0.761; #3 1.82
PRAM1 (PML-RARA regulated adaptor molecule 1): #1 -0.837; #2 1.75; #3 1.08
RP1L1 (RP1 like 1): #1 3.3; #2 -0.838; #3 -0.414
ZFAND2B (zinc finger AN1-type containing 2B): #1 1.57; #2 -0.426; #3 1.66
PAPPA2 (pappalysin 2): #1 0.135; #2 -0.369; #3 1.37
PGBD2 (piggyBac transposable element derived 2): #1 -0.552; #2 -0.915; #3 0.151

Ordered by “G2 robust z-score” (low to high): some entries from above
target	reagent	G2 robust z-score
TBC1D21 (TBC1 domain family member 21)	3	-0.496
LACRT (lacritin)	1	0.354
LACRT (lacritin)	2	0.757
LACRT (lacritin)	3	2.41
